Drawing on paper PMC8986801, “Activation of the essential kinase PDK1 by phosphoinositide-driven trans-autophosphorylation” (Nature Communications, 2022), this text covers binding for three molecules.

Assay in all cases: SEC-MALS; 50 μl of purified protein injected on Superdex 200 10/300; 50 mM Tris pH 7.5, 100 mM NaCl, 2% glycerol, 1 mM TCEP, 2 mM MgCl2, ±1 mM ATP; self-association (monomer or dimer); both purified
For assay [1], the target named is PDK1^FL S241A (near-full-length PDK1, residues 73-556, S241A) (human) (UniProt O15530).
For assay [2], the target named is PDK1^SKD S241A (short kinase domain, residues 73-359, S241A) (human) (UniProt O15530).
In assay [3] the target is PDK1^PIF-SKD S241A (PIFtide fused through a G5 linker to the N-terminus of the short kinase domain, S241A) (UniProt O15530).

These are yes or no findings as the source states them, for the method shown. For part of these data: Sequences can lack the tags named with a protein.

B1: PDK1^FL S241A (near-full-length PDK1, residues 73-556, S241A) (domain or fragment, UniProt O15530 73-556)
chain: QPRKKRPEDFKFGKILGEGSFSTVVLARELATSREYAIKILEKRHIIKENKVPYVTRERDVMSRLDHPFFVKLYFTFQDDEKLYFGLSYAKNGELLKYIRKIGSFDETCTRFYTAEIVSALEYLHGKGIIHRDLKPENILLNEDMHIQITDFGTAKVLSPESKQARANAFVGTAQYVSPELLTEKSACKSSDLWALGCIIYQLVAGLPPFRAGNEYLIFQKIIKLEYDFPEKFFPKARDLVEKLLVLDATKRLGCEEMEGYGPLKAHPFFESVTWENLHQQTPPKLTAYLPAMSEDDEDCYGNYDNLLSQFGCMQVSSSSSSHSLSASDTGLPQRSGSNIEQYIHDLDSNSFELDLQFSEDEKRLLLEKQAGGNPWHQFVENNLILKMGPVDKRKGLFARRRQLLLTEGPHLYYVDPVNKVLKGEIPWSQELRPEAKNFKTFFVHTPNRTYYLMDPSGNAHKWCRKIQEVWRQRYQSHPDAAVQ
For the molecule B1, the binding entry in assay [1] is “no binding (tested: 2 μM)”.

B2: PDK1^SKD S241A (short kinase domain, residues 73-359, S241A) (domain or fragment, UniProt O15530 73-359)
chain: QPRKKRPEDFKFGKILGEGSFSTVVLARELATSREYAIKILEKRHIIKENKVPYVTRERDVMSRLDHPFFVKLYFTFQDDEKLYFGLSYAKNGELLKYIRKIGSFDETCTRFYTAEIVSALEYLHGKGIIHRDLKPENILLNEDMHIQITDFGTAKVLSPESKQARANAFVGTAQYVSPELLTEKSACKSSDLWALGCIIYQLVAGLPPFRAGNEYLIFQKIIKLEYDFPEKFFPKARDLVEKLLVLDATKRLGCEEMEGYGPLKAHPFFESVTWENLHQQTPPKLT
B2: the binding entry in assay [2] is on record as “no binding (tested: 2 μM)”.

B3: PDK1^PIF-SKD S241A (PIFtide fused through a G5 linker to the N-terminus of the short kinase domain, S241A) (protein, UniProt O15530 73-359)
chain: QEMFRDFDYIADWCGGGGGQPRKKRPEDFKFGKILGEGSFSTVVLARELATSREYAIKILEKRHIIKENKVPYVTRERDVMSRLDHPFFVKLYFTFQDDEKLYFGLSYAKNGELLKYIRKIGSFDETCTRFYTAEIVSALEYLHGKGIIHRDLKPENILLNEDMHIQITDFGTAKVLSPESKQARANAFVGTAQYVSPELLTEKSACKSSDLWALGCIIYQLVAGLPPFRAGNEYLIFQKIIKLEYDFPEKFFPKARDLVEKLLVLDATKRLGCEEMEGYGPLKAHPFFESVTWENLHQQTPPKLT
Regarding B3, in assay [3], the binding entry is reported as “no binding (tested: 5.6 mg/ml injected (50 μl))”.
